Measured values as given in paper PMC12013949.
No constants are given. Whether binding was seen depends on the method and setting. In cells and extracts the contact can be indirect. Some entries that bind do so weakly or less than the wild type. Where a sequence is shown, tags or fusion partners need not be part of it.

Chains of the proteins cited; added tags and fusions are not shown. Residues count along the entry.
UniProt P29844, residues 19-656: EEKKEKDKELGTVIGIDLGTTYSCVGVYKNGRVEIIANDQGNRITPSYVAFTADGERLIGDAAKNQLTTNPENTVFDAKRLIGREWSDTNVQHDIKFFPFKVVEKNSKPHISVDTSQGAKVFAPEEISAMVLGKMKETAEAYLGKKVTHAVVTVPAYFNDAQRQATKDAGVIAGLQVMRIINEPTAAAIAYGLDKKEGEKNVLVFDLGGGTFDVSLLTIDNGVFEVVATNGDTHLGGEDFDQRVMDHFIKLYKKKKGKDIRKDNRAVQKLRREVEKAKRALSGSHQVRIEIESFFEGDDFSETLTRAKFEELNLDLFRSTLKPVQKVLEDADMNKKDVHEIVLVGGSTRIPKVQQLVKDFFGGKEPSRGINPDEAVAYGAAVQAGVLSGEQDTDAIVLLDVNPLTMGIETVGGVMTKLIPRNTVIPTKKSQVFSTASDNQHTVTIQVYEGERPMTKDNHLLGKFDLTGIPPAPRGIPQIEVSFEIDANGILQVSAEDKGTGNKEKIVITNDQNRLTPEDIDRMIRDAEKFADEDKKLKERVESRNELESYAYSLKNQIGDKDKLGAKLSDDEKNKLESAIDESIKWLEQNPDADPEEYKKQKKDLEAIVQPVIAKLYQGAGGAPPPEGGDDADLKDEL

Molecular target: Flag-Hsc70-3 (pCDNA3.1-Flag-Hsc70-3) (Drosophila) (UniProt P29844)
Test: co-IP; HEK293T cells co-transfected with pCDNA3.1-Flag or pCDNA3.1-Flag-Hsc70-3 and pCDNA3.1-HA-WRNexo, lysed after 48 h; anti-FLAG M2 gel, 4 °C for 2 h; six washes with lysis buffer; elution with 3× FLAG peptide; western blotting

B1: HA-WRNexo (pCDNA3.1-HA-WRNexo) (protein, UniProt Q9VE86 1-353)
chain: MEKYLTKMPIKSKANEVPKEEAGVKKETPKVARKATKKDTPKELKDKENAGDDNTPKQTKGRPGRPAAKRKNLDTPDVTEKLAMEEENPPKRRSSRLTRSTRSMAEDGSPSPEKEKPEKLPFIKYKGAIKYFTESQDIAASADDVLQWVEKQKDEVVPMAFDMEWPFSFQTGPGKSAVIQICVDEKCCYIYQLTNVKKLPAALVALINHPKVRLHGVNIKNDFRKLARDFPEVTAEPLIEKCVDLGLWCNEVCETGGRWSLERLTNFIAKKAMDKSKKVRMSKWHVIPLDENQLMYAAIDVYIGQVIYRELERREKVKIKNEEEFKEKNGDAAFKAMKALGETFLTKINEVTL
binding: binds
